PubChem BioAssay AID1259424 | University of Nebraska Medical Center, 2018

Purpose: 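Seek colon cancer survival genes behaving like KSR1, using a six-gene signature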 (primary screen)
Cells: human HCT116 colon cancer cells
Reagent: siRNA pool against human genes, 50 nM
Measured: 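Log2 levels of six mRNAs (branched-DNA multiplex), adjusted by two reference genes and the non-targeting median, then scored against the average KSR1 knockdown pattern as Pearson r and euclidean distance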
Direction: mean correlation with KSR1 profile: higher = expression change more like KSR1 knockdown
The whole screen tested about 14,000 reagents; below is a random part of them. 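Higher correlation or smaller distance means closer resemblance to KSR1 loss; control wells, including KSR1 knockdowns, recur on many plates.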 The numbers tell different reagents against one gene apart. Not all columns of the deposit are shown. Not given: the time to read-out.

mean correlation with KSR1 profile, by gene knocked down and reagent
NSG1: #1 -0.682
PFDN6: #1 -0.408
FLII: #1 -0.559
ARPP21: #1 -0.371
RPS3: #1 0.451
AMT: #1 -0.678
SLURP1: #1 -0.258
MRPS21: #1 -0.255
SRSF7: #1 0.189
HIC2: #1 0.56
SLC22A23: #1 0.197; #2 0.406
S100A14: #1 0.604
AQP7: #1 -0.336
PCBD1: #1 0.163
GPR31: #1 0.658
ARHGDIG: #1 -0.0527
GPX1: #1 -0.691
DRD5: #1 0.449
STEAP1: #1 -0.32
PLEKHM1: #1 -0.0744
DKK3: #1 -0.474
GPR158: #1 -0.0467
TTC19: #1 0.105
CASC3: #1 -0.495
GCNT2: #1 -0.41
TFDP1: #1 0.515
ZBTB5: #1 -0.682
SLC25A20: #1 -0.362
MGRN1: #1 -0.331
UTP15: #1 0.129
WIF1: #1 0.187
TAT: #1 0.471
NAALADL1: #1 0.491
AXIN2: #1 0.0849
NPBWR1: #1 0.59
CHORDC1: #1 -0.885
CRYBG1: #1 0.314
NEK1: #1 0.0658
ROCK1: #1 0.767
PARN: #1 -0.404
ABCG1: #1 -0.551
TM2D1: #1 0.747
RAB11A: #1 0.25
SOD2: #1 0.811
SERPINA4: #1 -0.0429
CRNKL1: #1 -0.0726
SELENOS: #1 -0.339
NSFL1C: #1 0.486
EXOC7: #1 -0.396

Copied from above, 3 entries:
mean correlation with KSR1 profile, by gene knocked down and reagent
SOD2: #1 0.811
SERPINA4: #1 -0.0429
CRNKL1: #1 -0.0726
